Consider 1 substance from article PMC5363614, “Secreted protein acidic and rich in cysteine (SPARC) induces lipotoxicity in neuroblastoma by regulating transport of albumin complexed with fatty acids” (Oncotarget, 2016).

Amino acid sequences for entries named in this document (tags omitted). Residues count along the entry.
UniProt P02768, residues 25-609: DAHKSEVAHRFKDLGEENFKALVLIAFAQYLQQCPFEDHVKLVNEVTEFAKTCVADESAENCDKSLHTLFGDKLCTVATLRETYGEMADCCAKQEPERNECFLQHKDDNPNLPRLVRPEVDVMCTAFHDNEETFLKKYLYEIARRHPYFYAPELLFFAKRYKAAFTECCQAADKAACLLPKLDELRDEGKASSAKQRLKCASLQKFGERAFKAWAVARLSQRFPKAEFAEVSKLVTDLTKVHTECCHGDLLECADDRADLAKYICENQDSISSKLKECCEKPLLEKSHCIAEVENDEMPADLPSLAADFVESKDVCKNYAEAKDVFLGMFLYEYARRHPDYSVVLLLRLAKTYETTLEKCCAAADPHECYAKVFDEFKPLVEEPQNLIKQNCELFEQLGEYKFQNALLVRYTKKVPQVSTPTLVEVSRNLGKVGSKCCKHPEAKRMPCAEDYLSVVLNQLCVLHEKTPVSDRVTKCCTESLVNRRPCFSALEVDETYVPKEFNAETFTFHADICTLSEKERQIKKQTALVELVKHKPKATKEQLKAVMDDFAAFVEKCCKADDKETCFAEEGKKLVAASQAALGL

These are yes or no findings as the source states them, for the method shown. Some results given as binding are weak or reduced against the parent protein; the word gives no strength. Tags and fused reporters may be left off the sequences shown.

This test addresses T1, Recombinant human SPARC (secreted protein acidic and rich in cysteine), histidine-tagged (human) (UniProt P09486).
T1 sequence: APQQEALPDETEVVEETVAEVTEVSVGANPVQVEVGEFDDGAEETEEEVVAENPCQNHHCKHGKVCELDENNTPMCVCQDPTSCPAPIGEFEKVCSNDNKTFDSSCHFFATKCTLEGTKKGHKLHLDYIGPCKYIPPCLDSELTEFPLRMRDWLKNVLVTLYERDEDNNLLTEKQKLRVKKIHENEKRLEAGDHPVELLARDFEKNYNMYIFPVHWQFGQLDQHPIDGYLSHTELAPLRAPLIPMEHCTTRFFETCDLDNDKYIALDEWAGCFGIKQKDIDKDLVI
Nature of the test: SPR; data not shown; SPARC immobilised on Sensor NTA chip; human serum albumin as analyte, room temperature, 20 ul/minute; both purified.

For the substance “Human serum albumin (from UniProt P02768 25-609)”, the binding entry is “binds”.
